{"sequences": {"note": "By UniProt entry, the sequences of proteins in these tests, tags left out. Where a name states a change or a piece, a line headed by the entry shows the natural chain unless it says otherwise.", "UniProt O94782": "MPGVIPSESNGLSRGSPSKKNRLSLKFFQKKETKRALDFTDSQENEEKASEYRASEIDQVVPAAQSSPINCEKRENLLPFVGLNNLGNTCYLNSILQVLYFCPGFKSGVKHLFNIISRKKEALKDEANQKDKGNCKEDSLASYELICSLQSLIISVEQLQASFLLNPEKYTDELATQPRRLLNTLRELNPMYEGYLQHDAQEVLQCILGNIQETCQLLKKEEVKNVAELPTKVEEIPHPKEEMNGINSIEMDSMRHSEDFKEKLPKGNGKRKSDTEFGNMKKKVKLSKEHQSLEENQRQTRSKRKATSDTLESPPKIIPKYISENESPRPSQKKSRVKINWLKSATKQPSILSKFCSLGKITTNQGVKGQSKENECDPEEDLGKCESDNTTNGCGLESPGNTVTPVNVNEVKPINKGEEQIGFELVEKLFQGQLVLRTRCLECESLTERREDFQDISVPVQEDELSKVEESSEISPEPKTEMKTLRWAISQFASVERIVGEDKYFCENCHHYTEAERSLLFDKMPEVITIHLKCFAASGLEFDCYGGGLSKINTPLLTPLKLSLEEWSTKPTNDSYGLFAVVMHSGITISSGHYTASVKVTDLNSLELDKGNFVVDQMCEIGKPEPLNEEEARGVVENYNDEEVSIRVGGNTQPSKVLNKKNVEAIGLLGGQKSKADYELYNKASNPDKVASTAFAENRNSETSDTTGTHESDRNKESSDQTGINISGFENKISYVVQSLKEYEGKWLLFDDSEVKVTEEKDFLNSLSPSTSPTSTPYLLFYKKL"}, "source": "PubChem BioAssay AID743255", "about": "(National Center for Advancing Translational Sciences (NCATS), 2014)", "note": "Among all 390,000 compounds or so, about 910 (0.23%) were called active. The inconclusive results got no clear call from the source; some entries with a clear call stand among them for comparison. Calls follow the shape of the dose curve; as a rule, active = well fitted inhibition curve with a large enough effect; inconclusive = small, poorly fitted or top-dose-only effect; inactive = no such curve, though single readings can be large or run the other way. Where the call is inconclusive, the potency comes from a doubtful curve fit. % is scaled to controls: 0 for no effect and ±100 for the full control effect; potency is read from the fitted curve at half-maximal effect."}
{"target": "Ubiquitin carboxyl-terminal hydrolase 1 (Homo sapiens) (UniProt O94782)", "assay": "Inhibitors of USP1/UAF1: Primary Screen; also: nearly all actives have a fitted effect of over 60% in size", "details": "recombinant USP1/UAF1, Ub-Rhodamine cleavage fluorescence; activity change, negative = inhibition: at 57.1 µM (top of the series)", "procedure,_shortened": "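High-throughput fluorogenic screen: 1nM USP1/UAF1 complex, Ub-Rho substrate 150nM final, 50mM HEPES pH 7.8 with 0.5mM EDTA, 0.1 mg/ml BSA, 1mM TCEP and 0.01% Tween-20.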"}
{"smiles": "CC[n+]1c(/C=C/C=C/N(C(C)=O)c2ccccc2)sc2ccccc21", "Potency": "active: 31.6 µM"}
{"smiles": "O=C1C(SCCO)=C(SCCO)C(=O)c2ccccc21", "Potency": "active: 6.31 µM"}
{"smiles": "N#Cc1nc(COc2ccccc2)oc1N1CCN(Cc2ccccc2)CC1", "activity change, negative = inhibition": "inactive: -23%"}
{"smiles": "CCOc1ccc(NC(=O)C2(c3cccs3)CCOCC2)cc1", "activity change, negative = inhibition": "inactive: -16.3%"}
{"smiles": "CC(=O)c1ccc(N(CC(=O)Nc2cc(C)on2)S(=O)(=O)c2ccc(C)cc2)cc1", "activity change, negative = inhibition": "inactive: -6.25%"}
{"smiles": "Cc1cnc([N+](=O)[O-])n1CCOC(=O)NC(=O)c1ccc(C(F)(F)F)cc1", "Potency": "inconclusive: 11.2 µM [inhibitor, single point]"}
{"smiles": "Cc1cc(C(F)(F)F)c(C#N)c(N2CCOCC2)n1", "activity change, negative = inhibition": "inactive: -1.31%"}
{"smiles": "CN(C)S(=O)(=O)N(CC(=O)Nc1ccc(C(F)(F)F)cc1)c1ccccc1", "Potency": "inconclusive: 0.251 µM [inhibitor, full curve, poor fit]"}
{"smiles": "COc1ccc(N(Cc2cccs2)C(=O)c2ccco2)cc1", "activity change, negative = inhibition": "inactive: -0.399%"}
{"smiles": "C/C(=N\\NC(=O)CCCNc1ccccc1)c1ccncc1", "Potency": "inconclusive: 2 µM [inhibitor, partial curve]"}
{"smiles": "COC(=O)c1[nH]c2cc(OC)ccc2c1NC(=O)CN1CCN(c2cccc(C)c2)C(C)C1", "note": "(stereo unspecified)", "Potency": "inconclusive: 28.2 µM [inhibitor, partial curve, poor fit]"}
{"smiles": "COc1cc(C(=O)NCC(c2ccco2)S(=O)(=O)c2cccs2)cc(OC)c1OC", "note": "(stereo unspecified)", "activity change, negative = inhibition": "inactive: 1.45%"}
{"smiles": "CCOc1ccc(CC(=O)NC2CC(=O)N(c3cccc(F)c3)C2)cc1", "note": "(stereo unspecified)", "Potency": "inconclusive: 10 µM [inhibitor, partial curve, poor fit]"}
{"smiles": "CC(CNC(=O)c1ccc2c(c1)nc1n2CCCCC1)c1ccccc1", "note": "(stereo unspecified)", "Potency": "inconclusive: 126 µM [inhibitor, partial curve, poor fit]"}
{"smiles": "COc1cc(/C=C/C(=O)CC(=O)/C=C/c2ccc(O)c(OC)c2)ccc1O", "Potency": "inconclusive: 2.51 µM [inhibitor, full curve]"}
{"smiles": "O=S(=O)(NCc1ccccc1)c1ccc(S(=O)(=O)NCC2CCCO2)cc1", "note": "(stereo unspecified)", "Potency": "inconclusive: 7.94 µM [inhibitor, single point]"}
{"smiles": "Cc1ccccc1C1=C/C(=C(\\SS/C(C(=O)c2ccc(OCC(=O)O)c(Cl)c2Cl)=C2\\C=C(c3ccccc3C)SS2)C(=O)c2ccc(OCC(=O)O)c(Cl)c2Cl)SS1", "Potency": "active: 31.6 µM"}
{"smiles": "Cc1ccc(Cn2c(SCC(=O)NCc3ccccc3)nc3ccsc3c2=O)cc1", "activity change, negative = inhibition": "inactive: 9.14%"}
{"smiles": "CCOC(=O)c1ccc(NC(=O)CN2C(=O)NC3(CCCCCCC3)C2=O)cc1", "Potency": "inconclusive: 50.1 µM [inhibitor, partial curve, poor fit]"}
{"smiles": "CCOC(=O)c1c(NC(=O)CSc2nnc(-c3ccccc3)n2CC)sc(C(C)=O)c1C", "Potency": "inconclusive: 35.5 µM [inhibitor, partial curve]"}
{"smiles": "CCOCCc1nnc(NC(=O)CS(=O)(=O)c2ccc(C)cc2)s1", "Potency": "inconclusive: 0.631 µM [inhibitor, full curve, poor fit]"}
{"smiles": "Cc1cccc(CS(=O)(=O)c2nnc([C@H](Cc3ccccc3)NC(=O)OC(C)(C)C)o2)c1", "activity change, negative = inhibition": "inactive: -4.22%"}
{"smiles": "O=C(NCC(c1ccco1)S(=O)(=O)c1cccs1)c1ccccc1", "note": "(stereo unspecified)", "Potency": "inconclusive: 158 µM [inhibitor, partial curve, poor fit]"}
{"smiles": "COc1ccc(NC(=O)Nc2ccc3c(c2)C(=O)N([C@H](C)CO)C[C@H](C)[C@@H](CN(C)S(=O)(=O)c2cccs2)O3)cc1", "Potency": "inconclusive: 112 µM [inhibitor, partial curve, poor fit]"}
{"smiles": "O=C(COc1ccccc1)Nc1nc2c(s1)CCCC2", "Potency": "inconclusive: 44.7 µM [inhibitor, partial curve, poor fit]"}
{"smiles": "O=C(CCl)c1ccc(Cc2ncc(C(F)(F)F)cc2Cl)s1", "activity change, negative = inhibition": "inactive: -25.6%"}
{"smiles": "O=C1CCN(CCc2ccccc2)CCN1CCO", "Potency": "inconclusive: 12.6 µM [inhibitor, partial curve, poor fit]"}
{"smiles": "CCc1ccc(NC(=O)c2sc3ncnc(N(C)C4CCCCC4)c3c2C)cc1", "Potency": "inconclusive: 1.26 µM [inhibitor, full curve]"}
{"smiles": "O=C(NCc1ccc2c(c1)CCN2C(=O)c1ccccc1)c1cc2ccccc2[nH]1", "Potency": "inconclusive: 6.31 µM [inhibitor, partial curve]"}
{"smiles": "O=C(c1ccccc1)C(CCC(CN1CCOCC1)C(=O)c1ccccc1)CN1CCOCC1", "note": "(stereo unspecified)", "activity change, negative = inhibition": "inactive: -20.3%"}
{"smiles": "O=C(CN1C(=O)COc2ccc(S(=O)(=O)N3CCCC3)cc21)N1CCN(c2ccccc2)CC1", "Potency": "inconclusive: 141 µM [inhibitor, partial curve, poor fit]"}
{"smiles": "O=C(c1ccco1)N1CCC2CC1c1c(Cl)cccc12", "note": "(stereo unspecified)", "activity change, negative = inhibition": "inactive: -23%"}
{"smiles": "COc1cccc(CNC(=O)c2ccc3nc(-c4ccc(F)cc4)c(-c4ccc(F)cc4)nc3c2)c1", "activity change, negative = inhibition": "inactive: -15.6%"}
{"smiles": "C[C@@H]1O[C@@H](O[C@H]2[C@H](O)[C@@H](O)[C@H](Oc3c(-c4ccc(O)c(O)c4)oc4cc(O)cc(O)c4c3=O)O[C@@H]2CO)[C@H](O)[C@H](O)[C@H]1O", "Potency": "inconclusive: 56.2 µM [inhibitor, partial curve, poor fit]"}
{"smiles": "CCCCCc1ccc(-c2cn(Cc3ccc([N+](=O)[O-])cc3)nn2)cc1", "Potency": "inconclusive: 39.8 µM [inhibitor, partial curve]"}
{"smiles": "CCCCOC(=O)Nc1nnc(CC)s1", "Potency": "inconclusive: 25.1 µM [inhibitor, single point]"}
{"smiles": "COc1cccc(CN2C(=O)c3ccccc3Sc3ccc(C(=O)N(C)Cc4ccccc4)cc32)c1", "Potency": "inconclusive: 0.398 µM [inhibitor, full curve, poor fit]"}
{"smiles": "Cc1cccc(C2C3=C(Nc4[nH]n(-c5ccccc5)c(=O)c42)c2ccccc2C3=O)c1", "note": "(stereo unspecified)", "activity change, negative = inhibition": "inactive: -24.3%"}
{"smiles": "COc1ccc(NS(=O)(=O)c2ccc(NC(=S)NC(=O)/C=C/c3ccccc3)cc2)nn1", "activity change, negative = inhibition": "inactive: -22.9%"}
{"smiles": "COc1ccc(OC)c(C2Nc3c(Cl)ccc(C(=O)O)c3C3C=CCC32)c1", "note": "(stereo unspecified)", "Potency": "inconclusive: 35.5 µM [inhibitor, partial curve, poor fit]"}
{"smiles": "O=C(NCCc1ccc(Cl)cc1)Nc1ccc(F)cc1", "activity change, negative = inhibition": "inactive: -0.793%"}
{"smiles": "CCCc1cc(=O)n2[nH]c(NC(=O)c3ccc(C(C)(C)C)cc3)nc2n1", "activity change, negative = inhibition": "inactive: -5.49%"}
{"smiles": "Cc1ccc(S(=O)(=O)N2[C@@H](c3ccc(Cl)c(Cl)c3)C(C(=O)O)=C[C@H]2CC2CCCC2)cc1", "Potency": "inconclusive: 63.1 µM [inhibitor, partial curve, poor fit]"}
{"smiles": "COc1ccc(C(=O)Nc2nc3nc(C)c(Cc4ccccc4)c(=O)n3[nH]2)cc1OC", "Potency": "inconclusive: 0.891 µM [inhibitor, full curve, poor fit]"}
{"smiles": "CC(C)CCNC(=O)c1ccc2c(c1)NC(=O)C(CS(=O)(=O)Cc1ccc(F)cc1)N2", "note": "(stereo unspecified)", "Potency": "inconclusive: 3.16 µM [inhibitor, partial curve]"}
{"smiles": "CCCCCCCCCC1(CC(=O)OCC)SCCN1C(N)=O", "note": "(stereo unspecified)", "Potency": "inconclusive: 56.2 µM [inhibitor, partial curve, poor fit]"}
{"smiles": "Nc1ccc2oc(-c3cccc4ccccc34)nc2c1", "activity change, negative = inhibition": "inactive: -10.7%"}
{"smiles": "Cc1ccc(NC(=O)Cn2cc(C(=O)C3CC3)c3ccccc32)c(C)c1", "Potency": "inconclusive: 31.6 µM [inhibitor, single point]"}
{"smiles": "COC(=O)CCCC1=CC2=C(c3ccccc3)C(=O)C(C)(OC(=O)C3CCCC3)C(=O)C2=CN1CCCCO", "note": "(stereo unspecified)", "Potency": "inconclusive: 44.7 µM [inhibitor, partial curve, poor fit]"}
{"smiles": "CCCC[n+]1ccn(-c2nc3ccccc3nc2[N-]S(=O)(=O)c2ccc(Cl)cc2)c1", "activity change, negative = inhibition": "inactive: -4.17%"}
{"smiles": "CCC(=O)Nc1ccc(SC#N)cc1C", "Potency": "inconclusive: 0.631 µM [inhibitor, partial curve, poor fit]"}
{"smiles": "COc1cc(/C=C/C(=O)OCC(=O)N2CCc3ccccc3C2)ccc1O", "activity change, negative = inhibition": "inactive: -12.5%"}
{"smiles": "N#CC1=C(N)Oc2n[nH]c(-c3cccnc3)c2C1c1ccc([N+](=O)[O-])o1", "note": "(stereo unspecified)", "activity change, negative = inhibition": "inactive: -26.2%"}
{"smiles": "COc1ccc(S(=O)(=O)c2cnc3ccc(Cl)cc3c2N2CCCCC2C)cc1", "note": "(stereo unspecified)", "Potency": "inconclusive: 4.47 µM [inhibitor, full curve, poor fit]"}
{"smiles": "O=c1c2ccccc2[nH]c(=S)n1CCCN1CCC(Cc2ccccc2)CC1", "activity change, negative = inhibition": "inactive: -20.3%"}
{"smiles": "COC(=O)CCCC1=CC2=CC(=O)C(C)(OC(=O)c3cccs3)C(=O)C2=CN1CC1CC1", "note": "(stereo unspecified)", "Potency": "inconclusive: 31.6 µM [inhibitor, partial curve]"}
{"smiles": "CC1CCCc2sc3nc(SCC(=O)c4ccc(Br)cc4)nc(N)c3c21", "note": "(stereo unspecified)", "activity change, negative = inhibition": "inactive: -9.34%"}
{"smiles": "Cc1nc2c(C(=O)NCCCN(CC(C)C)CC(C)C)cnn2c(C)c1Cc1c(F)cccc1Cl", "Potency": "inconclusive: 3.98 µM [inhibitor, partial curve]"}
{"smiles": "C=CCNc1ncnc2ccccc12", "Potency": "inconclusive: 14.1 µM [inhibitor, partial curve]"}
{"smiles": "CCCc1nn2c(=O)cc(COC(=O)c3ccccc3NC(=O)COc3ccccc3F)nc2s1", "activity change, negative = inhibition": "inactive: -15.2%"}
{"smiles": "Cc1ccc(NCc2nc3ccccc3n2C)cc1", "activity change, negative = inhibition": "inactive: -10.1%"}
{"smiles": "CCN(CC(=O)Nc1ccccc1C(F)(F)F)C(=O)c1ccc2c(c1)NC(=O)C(C)S2", "note": "(stereo unspecified)", "Potency": "inconclusive: 0.251 µM [inhibitor, full curve, poor fit]"}
{"smiles": "Cc1ccc(C2=NS(=O)(=O)N(C)C(C(=O)N(C)C3CCCCC3)=C2)cc1", "Potency": "inconclusive: 1.12 µM [inhibitor, full curve]"}
{"smiles": "COC(=O)COc1ccc(S(=O)(=O)NCc2ccco2)cc1", "Potency": "inconclusive: 6.31 µM [inhibitor, single point]"}
{"smiles": "Cc1c(C(=O)NCc2cccc(Cl)c2)sc2ncnc(N(C)C3CCCCC3)c12", "Potency": "inconclusive: 50.1 µM [inhibitor, single point]"}
{"smiles": "COc1ccc(S(=O)(=O)N2CCC(C(=O)NC3CC3)CC2)cc1", "Potency": "inconclusive: 5.01 µM [inhibitor, full curve, poor fit]"}
